From the supplement of paper PMC12067093, “Discovery and optimisation of a covalent ligand for TRIM25 and its application to targeted protein ubiquitination” (Chemical Science, 2025) come the findings set out here.

Amino acid sequences for entries named in this document (tags omitted). A change or cut given only in a name is not applied to a line headed by its entry.
UniProt Q9Y6J0: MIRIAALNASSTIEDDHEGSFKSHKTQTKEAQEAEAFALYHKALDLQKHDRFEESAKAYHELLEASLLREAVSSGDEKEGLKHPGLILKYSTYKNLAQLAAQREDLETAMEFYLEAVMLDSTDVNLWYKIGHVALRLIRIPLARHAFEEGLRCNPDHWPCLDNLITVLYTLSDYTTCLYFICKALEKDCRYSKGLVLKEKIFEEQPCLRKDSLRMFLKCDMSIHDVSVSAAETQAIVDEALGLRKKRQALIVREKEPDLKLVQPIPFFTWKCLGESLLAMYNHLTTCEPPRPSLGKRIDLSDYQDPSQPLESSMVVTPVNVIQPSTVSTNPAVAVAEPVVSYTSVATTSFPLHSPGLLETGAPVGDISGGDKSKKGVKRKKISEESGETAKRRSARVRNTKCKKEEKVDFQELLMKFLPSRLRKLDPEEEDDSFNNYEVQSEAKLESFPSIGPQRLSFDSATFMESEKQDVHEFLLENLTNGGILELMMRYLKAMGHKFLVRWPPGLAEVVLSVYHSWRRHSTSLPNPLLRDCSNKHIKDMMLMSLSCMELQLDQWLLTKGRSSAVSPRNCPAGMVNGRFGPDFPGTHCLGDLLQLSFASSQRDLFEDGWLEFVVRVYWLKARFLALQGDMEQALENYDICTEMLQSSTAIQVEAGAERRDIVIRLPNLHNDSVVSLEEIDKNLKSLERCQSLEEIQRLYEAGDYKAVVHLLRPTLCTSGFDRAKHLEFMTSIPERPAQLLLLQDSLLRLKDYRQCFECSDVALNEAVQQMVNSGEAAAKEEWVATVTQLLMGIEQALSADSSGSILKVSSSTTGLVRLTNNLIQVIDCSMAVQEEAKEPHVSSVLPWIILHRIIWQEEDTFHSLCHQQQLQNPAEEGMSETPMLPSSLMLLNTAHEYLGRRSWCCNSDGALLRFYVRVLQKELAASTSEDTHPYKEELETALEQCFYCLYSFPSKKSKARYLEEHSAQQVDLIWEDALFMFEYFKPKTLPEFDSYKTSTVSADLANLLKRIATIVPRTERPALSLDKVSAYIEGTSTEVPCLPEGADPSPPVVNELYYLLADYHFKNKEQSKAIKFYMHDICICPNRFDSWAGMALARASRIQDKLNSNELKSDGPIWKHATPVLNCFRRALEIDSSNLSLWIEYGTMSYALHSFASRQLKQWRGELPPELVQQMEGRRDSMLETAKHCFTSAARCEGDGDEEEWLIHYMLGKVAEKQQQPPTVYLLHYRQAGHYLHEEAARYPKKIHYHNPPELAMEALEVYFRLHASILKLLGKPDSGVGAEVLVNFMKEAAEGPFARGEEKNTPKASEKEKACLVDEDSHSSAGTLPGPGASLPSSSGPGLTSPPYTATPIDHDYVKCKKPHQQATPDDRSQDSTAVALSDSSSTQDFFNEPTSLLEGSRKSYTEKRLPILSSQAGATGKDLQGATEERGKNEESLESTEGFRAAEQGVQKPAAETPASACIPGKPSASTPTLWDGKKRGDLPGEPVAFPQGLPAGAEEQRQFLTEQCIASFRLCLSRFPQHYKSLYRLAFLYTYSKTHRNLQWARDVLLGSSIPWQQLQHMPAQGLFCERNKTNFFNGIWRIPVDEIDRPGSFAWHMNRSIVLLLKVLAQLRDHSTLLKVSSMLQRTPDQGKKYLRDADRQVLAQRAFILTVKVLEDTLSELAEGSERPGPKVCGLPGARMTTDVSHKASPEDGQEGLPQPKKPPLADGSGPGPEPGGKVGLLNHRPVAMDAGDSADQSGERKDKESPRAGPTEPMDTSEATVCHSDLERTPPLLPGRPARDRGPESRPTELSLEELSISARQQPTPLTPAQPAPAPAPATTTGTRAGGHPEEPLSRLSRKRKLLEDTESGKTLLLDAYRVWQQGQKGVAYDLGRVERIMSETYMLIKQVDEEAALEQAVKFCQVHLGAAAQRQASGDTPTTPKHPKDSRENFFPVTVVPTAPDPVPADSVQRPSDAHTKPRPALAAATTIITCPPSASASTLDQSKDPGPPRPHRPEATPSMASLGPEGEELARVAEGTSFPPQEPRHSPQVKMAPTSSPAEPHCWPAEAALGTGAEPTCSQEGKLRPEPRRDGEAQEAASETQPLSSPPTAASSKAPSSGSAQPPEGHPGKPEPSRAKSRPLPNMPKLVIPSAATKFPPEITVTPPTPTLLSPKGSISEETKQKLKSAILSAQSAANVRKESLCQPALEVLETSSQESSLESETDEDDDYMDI
UniProt Q9H0E9, whole entry, looked up: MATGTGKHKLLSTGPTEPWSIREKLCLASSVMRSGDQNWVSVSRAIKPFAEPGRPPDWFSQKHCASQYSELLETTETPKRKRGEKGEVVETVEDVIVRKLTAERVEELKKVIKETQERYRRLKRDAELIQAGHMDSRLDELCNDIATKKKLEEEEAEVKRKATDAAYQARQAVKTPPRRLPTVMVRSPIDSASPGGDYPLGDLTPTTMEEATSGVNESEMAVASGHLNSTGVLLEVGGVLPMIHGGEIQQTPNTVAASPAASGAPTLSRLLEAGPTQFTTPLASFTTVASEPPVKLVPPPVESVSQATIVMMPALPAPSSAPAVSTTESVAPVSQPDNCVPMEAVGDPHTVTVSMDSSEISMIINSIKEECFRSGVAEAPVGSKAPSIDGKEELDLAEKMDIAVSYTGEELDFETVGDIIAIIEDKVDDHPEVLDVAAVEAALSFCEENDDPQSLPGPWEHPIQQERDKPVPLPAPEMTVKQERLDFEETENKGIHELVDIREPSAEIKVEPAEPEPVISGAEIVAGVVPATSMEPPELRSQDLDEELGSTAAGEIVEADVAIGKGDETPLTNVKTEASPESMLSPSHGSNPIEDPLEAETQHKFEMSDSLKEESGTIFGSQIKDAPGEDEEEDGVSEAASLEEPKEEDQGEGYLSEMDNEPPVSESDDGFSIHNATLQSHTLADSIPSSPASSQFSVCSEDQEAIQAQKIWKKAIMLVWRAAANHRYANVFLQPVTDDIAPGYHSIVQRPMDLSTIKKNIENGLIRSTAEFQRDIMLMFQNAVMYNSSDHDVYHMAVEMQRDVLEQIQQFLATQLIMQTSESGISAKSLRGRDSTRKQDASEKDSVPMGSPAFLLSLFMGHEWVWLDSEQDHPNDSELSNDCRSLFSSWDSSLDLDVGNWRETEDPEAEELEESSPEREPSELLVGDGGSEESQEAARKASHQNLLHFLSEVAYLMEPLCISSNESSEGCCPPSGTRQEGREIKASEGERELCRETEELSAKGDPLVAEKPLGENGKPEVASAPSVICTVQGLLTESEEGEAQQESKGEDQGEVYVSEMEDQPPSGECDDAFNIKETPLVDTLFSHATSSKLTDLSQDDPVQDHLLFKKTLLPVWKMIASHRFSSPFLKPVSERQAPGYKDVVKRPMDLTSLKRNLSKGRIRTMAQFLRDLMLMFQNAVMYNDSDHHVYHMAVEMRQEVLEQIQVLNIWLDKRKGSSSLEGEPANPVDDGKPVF
UniProt Q06187: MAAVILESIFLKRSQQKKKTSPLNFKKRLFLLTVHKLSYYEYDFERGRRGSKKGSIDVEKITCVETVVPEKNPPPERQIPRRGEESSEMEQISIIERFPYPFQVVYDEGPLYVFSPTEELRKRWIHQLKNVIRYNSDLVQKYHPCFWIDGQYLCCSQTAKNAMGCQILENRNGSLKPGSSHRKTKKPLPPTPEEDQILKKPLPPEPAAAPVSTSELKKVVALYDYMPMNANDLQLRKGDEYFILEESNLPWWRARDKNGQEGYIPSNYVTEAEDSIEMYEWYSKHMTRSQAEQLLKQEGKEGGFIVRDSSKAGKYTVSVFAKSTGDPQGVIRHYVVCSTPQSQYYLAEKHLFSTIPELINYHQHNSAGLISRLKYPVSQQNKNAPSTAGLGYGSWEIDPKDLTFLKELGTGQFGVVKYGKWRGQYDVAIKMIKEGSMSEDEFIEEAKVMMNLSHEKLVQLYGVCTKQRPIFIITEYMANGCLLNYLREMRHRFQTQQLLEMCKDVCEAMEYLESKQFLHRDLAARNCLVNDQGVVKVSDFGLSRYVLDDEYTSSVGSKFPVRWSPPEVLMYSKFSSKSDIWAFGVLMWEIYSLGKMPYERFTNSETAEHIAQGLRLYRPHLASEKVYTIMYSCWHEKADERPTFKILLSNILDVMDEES
UniProt O43683: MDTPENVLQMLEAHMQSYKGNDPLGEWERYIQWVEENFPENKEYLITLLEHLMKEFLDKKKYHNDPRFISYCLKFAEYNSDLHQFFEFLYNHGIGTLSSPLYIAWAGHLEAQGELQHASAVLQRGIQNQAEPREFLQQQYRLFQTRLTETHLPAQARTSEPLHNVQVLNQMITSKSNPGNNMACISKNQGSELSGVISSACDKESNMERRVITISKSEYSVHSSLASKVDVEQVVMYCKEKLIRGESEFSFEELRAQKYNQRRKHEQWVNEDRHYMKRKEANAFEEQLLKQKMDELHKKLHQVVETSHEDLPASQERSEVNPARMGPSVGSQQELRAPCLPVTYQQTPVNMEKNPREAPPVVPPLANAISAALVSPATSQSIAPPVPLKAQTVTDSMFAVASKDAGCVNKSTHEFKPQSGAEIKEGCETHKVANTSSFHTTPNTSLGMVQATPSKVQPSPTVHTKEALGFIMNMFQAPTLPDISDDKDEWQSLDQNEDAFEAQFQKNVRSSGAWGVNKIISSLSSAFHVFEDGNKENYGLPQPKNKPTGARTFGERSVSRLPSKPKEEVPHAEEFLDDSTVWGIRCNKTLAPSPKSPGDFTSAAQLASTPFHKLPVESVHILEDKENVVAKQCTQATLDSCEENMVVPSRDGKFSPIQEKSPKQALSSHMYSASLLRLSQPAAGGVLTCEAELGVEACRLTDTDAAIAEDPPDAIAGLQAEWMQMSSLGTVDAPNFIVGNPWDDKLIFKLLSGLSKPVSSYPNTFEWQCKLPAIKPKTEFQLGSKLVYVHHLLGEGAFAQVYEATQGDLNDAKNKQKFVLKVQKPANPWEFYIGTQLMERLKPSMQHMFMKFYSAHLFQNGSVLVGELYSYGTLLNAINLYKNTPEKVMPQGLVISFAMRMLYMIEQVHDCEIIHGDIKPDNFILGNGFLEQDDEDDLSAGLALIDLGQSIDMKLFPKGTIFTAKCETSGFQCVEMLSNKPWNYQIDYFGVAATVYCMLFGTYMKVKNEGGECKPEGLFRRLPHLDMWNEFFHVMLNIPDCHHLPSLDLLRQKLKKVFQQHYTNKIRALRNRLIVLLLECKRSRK
UniProt Q9HAS0: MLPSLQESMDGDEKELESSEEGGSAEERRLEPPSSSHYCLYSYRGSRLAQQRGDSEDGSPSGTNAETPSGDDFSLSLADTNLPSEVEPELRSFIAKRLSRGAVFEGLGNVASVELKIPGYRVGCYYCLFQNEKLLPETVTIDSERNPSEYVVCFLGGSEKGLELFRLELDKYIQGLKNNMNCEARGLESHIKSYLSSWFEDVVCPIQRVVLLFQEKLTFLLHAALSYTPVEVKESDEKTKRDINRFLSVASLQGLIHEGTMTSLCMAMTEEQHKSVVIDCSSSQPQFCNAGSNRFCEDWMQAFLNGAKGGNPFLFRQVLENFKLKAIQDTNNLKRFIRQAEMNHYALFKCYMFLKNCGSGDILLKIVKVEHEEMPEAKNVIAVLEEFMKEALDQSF
UniProt P46736, whole entry, looked up: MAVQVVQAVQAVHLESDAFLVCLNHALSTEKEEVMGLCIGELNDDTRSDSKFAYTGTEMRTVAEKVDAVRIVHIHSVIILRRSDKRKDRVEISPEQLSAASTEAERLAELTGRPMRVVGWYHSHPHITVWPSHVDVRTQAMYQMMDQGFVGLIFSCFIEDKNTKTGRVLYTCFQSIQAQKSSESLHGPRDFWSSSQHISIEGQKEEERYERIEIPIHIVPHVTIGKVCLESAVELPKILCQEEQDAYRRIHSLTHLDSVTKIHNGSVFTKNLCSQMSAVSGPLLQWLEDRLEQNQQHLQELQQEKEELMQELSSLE
UniProt Q13554, whole entry, looked up: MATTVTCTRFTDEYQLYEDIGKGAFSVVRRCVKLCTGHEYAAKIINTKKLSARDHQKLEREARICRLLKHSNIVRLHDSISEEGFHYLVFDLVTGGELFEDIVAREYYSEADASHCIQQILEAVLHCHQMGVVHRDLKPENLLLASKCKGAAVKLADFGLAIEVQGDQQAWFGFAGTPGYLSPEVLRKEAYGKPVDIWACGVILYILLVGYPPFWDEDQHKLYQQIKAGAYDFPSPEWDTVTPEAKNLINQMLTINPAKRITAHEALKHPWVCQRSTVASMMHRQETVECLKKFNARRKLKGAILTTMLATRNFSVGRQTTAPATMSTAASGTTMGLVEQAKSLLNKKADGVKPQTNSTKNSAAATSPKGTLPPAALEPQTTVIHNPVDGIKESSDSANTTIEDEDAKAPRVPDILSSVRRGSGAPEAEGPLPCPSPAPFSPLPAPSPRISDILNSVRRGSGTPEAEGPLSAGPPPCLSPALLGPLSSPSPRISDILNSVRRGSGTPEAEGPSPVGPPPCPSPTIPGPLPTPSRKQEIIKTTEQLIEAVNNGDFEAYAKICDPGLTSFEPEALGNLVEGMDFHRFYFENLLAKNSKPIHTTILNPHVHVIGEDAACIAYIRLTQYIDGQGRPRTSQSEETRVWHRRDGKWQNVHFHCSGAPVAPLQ

The list shows a part of the results.

Compound in the assay: Cc1cc(ccc1-c1ccccc1)C(=O)N1CCCN(CC1)C(=O)CCl [compound 10]
As to the kind of experiment: probe-labelled cysteine peptide fold change vs DMSO (competition) (log2 fold change); higher = less target engagement (more negative = stronger competition). As to conditions: THP-1, incubation time: 4 h.
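Further: competitive profiling in live THP-1 cells: cysteine peptides tagged with an iodoacetamide desthiobiotin (IA-DTB) probe, intensity after compound treatment relative to DMSO-treated cells.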

On to “BRCA1_P38398_226_AACEFSETDVTNTEHHQPSNNDLNTTEK (UniProt P38398)”, for which the “probe-labelled cysteine peptide fold change” value by setting is: (10 µM) 0.0383; (50 µM) 0.015.

With “C5_P01031_1553_KQTACKPEIAYAYK (UniProt P01031)”, the “probe-labelled cysteine peptide fold change” value (10 µM) was -0.117 and the “probe-labelled cysteine peptide fold change” value (50 µM) was 0.0192.

Regarding “CABIN1_Q9Y6J0_589_FGPDFPGTHCLGDLLQLSFASSQR (UniProt Q9Y6J0)”, the “probe-labelled cysteine peptide fold change” value (10 µM) is -0.0631 and the “probe-labelled cysteine peptide fold change” value (50 µM) is -0.594.

As for “C3orf58_Q8NDZ4_402_DGRLEALLDECANPK (UniProt Q8NDZ4)”, the “probe-labelled cysteine peptide fold change” value (10 µM) is -0.198 and the “probe-labelled cysteine peptide fold change” value (50 µM) stood at 0.11.

Consider “BRD8_Q9H0E9_26_LCLASSVMR (UniProt Q9H0E9)”, for which the “probe-labelled cysteine peptide fold change” value was -0.0834 (10 µM) and -0.169 (50 µM).

For “CABIN1_Q9Y6J0_717_AVVHLLRPTLCTSGFDR (UniProt Q9Y6J0)”, the “probe-labelled cysteine peptide fold change” value (10 µM) was -0.149 and the “probe-labelled cysteine peptide fold change” value (50 µM) was -0.078.

Consider “C6orf89_Q6UWU4_28_QTGHQCGMSEK (UniProt Q6UWU4)”, for which the “probe-labelled cysteine peptide fold change” value runs as follows: (10 µM) -0.406; (50 µM) -0.807.

On to “BTK_Q06187_502_FQTQQLLEMCK (UniProt Q06187)”, for which the “probe-labelled cysteine peptide fold change” value by setting is: (10 µM) -0.166; (50 µM) -0.0477.

As for “BUB1B_O60566_775_EYLICEDYK (UniProt O60566)”, the “probe-labelled cysteine peptide fold change” value (10 µM) stood at 0.268 and the “probe-labelled cysteine peptide fold change” value (50 µM) is -0.117.

For the target “C5orf51_A6NDU8_120_HCNLLGDELLECLSWR (UniProt A6NDU8)”, the “probe-labelled cysteine peptide fold change” value was -0.203 (10 µM) and -0.282 (50 µM).

For the target “BTK_Q06187_165_NAMGCQILENR (UniProt Q06187)”, the “probe-labelled cysteine peptide fold change” value runs as follows: (10 µM) -0.184; (50 µM) -0.34.

In the case of “CAND1_Q86VP6_571_DLFTCTIK (UniProt Q86VP6)”, the “probe-labelled cysteine peptide fold change” value by setting is: (10 µM) 0.144; (50 µM) 0.168.

In the case of “BRI3_O95415_78_YPANSIVVVGGCPVCR (UniProt O95415)”, the “probe-labelled cysteine peptide fold change” value (10 µM) is -0.0909 and the “probe-labelled cysteine peptide fold change” value (50 µM) was -0.111.

Regarding “BTK_Q06187_506_DVCEAMEYLESK (UniProt Q06187)”, the “probe-labelled cysteine peptide fold change” value runs as follows: (10 µM) 0.149; (50 µM) -0.0539.

As for “CABIN1_Q9Y6J0_1197_CEGDGDEEEWLIHYMLGK (UniProt Q9Y6J0)”, the “probe-labelled cysteine peptide fold change” value by setting is: (10 µM) -0.261; (50 µM) -0.0151.

As to “BUB1_O43683_407_DAGCVNK (UniProt O43683)”, the “probe-labelled cysteine peptide fold change” value is, setting by setting: (10 µM) -0.0681; (50 µM) -0.127.

Consider “C17orf75_Q9HAS0_265_FLSVASLQGLIHEGTMTSLCMAMTEEQHK (UniProt Q9HAS0)”, for which the “probe-labelled cysteine peptide fold change” value (10 µM) is 0.0249 and the “probe-labelled cysteine peptide fold change” value (50 µM) is -0.756.

In the case of “BRIP1_Q9BX63_283_DHTCVHPEVVGNFNR (UniProt Q9BX63)”, the “probe-labelled cysteine peptide fold change” value is, setting by setting: (10 µM) 0.111; (50 µM) 0.0536.

Consider “C12orf4_Q9NQ89_55_LMLLHSLPCFIEK (UniProt Q9NQ89)”, for which the “probe-labelled cysteine peptide fold change” value runs as follows: (10 µM) -0.0861; (50 µM) -0.613.

Regarding “BRCC3_P46736_38_EEVMGLCIGELNDDTR (UniProt P46736)”, the “probe-labelled cysteine peptide fold change” value runs as follows: (10 µM) 0.0386; (50 µM) 0.0847.

“BRD1_O95696_341_GVGACIQCHK (UniProt O95696)”: the “probe-labelled cysteine peptide fold change” value runs as follows: (10 µM) 0.0942; (50 µM) -0.0457.

As for “CAMK2B_Q13554_273_HPWVCQR (UniProt Q13554)”, the “probe-labelled cysteine peptide fold change” value runs as follows: (10 µM) -0.00337; (50 µM) 0.237.

For the target “CALCOCO2_Q13137_443_QIFEDHVFCHSL (UniProt Q13137)”, the “probe-labelled cysteine peptide fold change” value (10 µM) is -0.333 and the “probe-labelled cysteine peptide fold change” value (50 µM) is -0.356.
